Experimental data from PubChem BioAssay AID330 (DTP/NCI, 2004).
The list does not hold the whole screen: it is rich in T/C values a quarter to a half above the control, in often repeated tests (any T/C) and in doses without a T/C. Other doses and runs of a compound stand elsewhere. T/C: endpoint of the treated group in % of that of the vehicle group. Some entries give survivors of the animals treated and no T/C: the source files T/C as zero there, which appears to mark a toxic dose or a test without result, not a measured value. Some survivor counts are full or nearly so, which does not show that the dose was tolerated: survival well below the control is almost never listed, so the zero probably covers shortened survival too. Counts of survivors are from the toxicity check (mostly the fifth day) where no day follows; animals may have died later. Schedule codes are those of the source, taken here to give the interval after Q, in days (D) or hours (H), and the number of doses after X. Some entries were tested several times; the results are listed from low to high. For survival time, this PubChem deposit counts one and a half times the control or more as active, and values a quarter to a half above the control carry no call in these data; other NCI protocols may use other cut-offs. Some T/C values carry the count of animals alive at the toxicity check (mostly the fifth day); without a count, all were alive then.

Tested on: P388 leukemia ip, CD2F1 mice, survival T/C
Assay: NCI In Vivo Anticancer Drug Screen. Data for tumor model P388 Leukemia (intraperitoneal) in CD2F1 (CDF1) mice
Settings: T/C endpoint: median survival time, higher T/C = longer survival
[1] = dose: 25.0 mg/kg/injection, schedule: Q01DX005 (ip), vehicle: Klucel (hydroxypropylcellulose) (HPC)
[2] = dose: 50.0 mg/kg/injection, schedule: Q01DX005 (ip), vehicle: Klucel (hydroxypropylcellulose) (HPC)
[3] = dose: 100.0 mg/kg/injection, schedule: Q01DX005 (ip), vehicle: Klucel (hydroxypropylcellulose) (HPC)
[4] = dose: 200.0 mg/kg/injection, schedule: Q01DX005 (ip), vehicle: Klucel (hydroxypropylcellulose) (HPC)
[5] = dose: 200.0 mg/kg/injection, schedule: Q04DX003 (ip), vehicle: saline with Tween-80
[6] = dose: 25.0 mg/kg/injection, schedule: Q01DX005 (ip), vehicle: saline with Tween-80
[7] = dose: 100.0 mg/kg/injection, schedule: Q01DX005 (ip), vehicle: saline with Tween-80
[8] = dose: 200.0 mg/kg/injection, schedule: Q01DX005 (ip), vehicle: saline with Tween-80

COc1cccc2c1C(=O)c1c(O)c3c(c(O)c1C2=O)C[C@@](O)(C(=O)CN1CCN(C)CC1)C[C@@H]3OC1CC(N)C(O)C(C)O1 (some centres not stated)
T/C (dose: 5.56 mg/kg/injection, schedule: Q01DX009 (ip), vehicle: water): 137 % of control
T/C (dose: 6.25 mg/kg/injection, schedule: Q01DX009 (ip), vehicle: water): 141 % of control
T/C (dose: 8.33 mg/kg/injection, schedule: Q01DX009 (ip), vehicle: water): 144 % of control
T/C (dose: 12.5 mg/kg/injection, schedule: Q01DX009 (ip), vehicle: water): 147 % of control
T/C (dose: 50.0 mg/kg/injection, schedule: Q01DX001 (ip), vehicle: water): 129 % of control
survivor count (dose: 50.0 mg/kg/injection, schedule: Q01DX009 (ip), vehicle: water): 6 of 6
T/C (dose: 100.0 mg/kg/injection, schedule: Q01DX001 (ip), vehicle: water): 137 % of control
survivor count (dose: 200.0 mg/kg/injection, schedule: Q01DX001 (ip), vehicle: water): 0 of 6
survivor count (dose: 400.0 mg/kg/injection, schedule: Q01DX001 (ip), vehicle: water): 0 of 6

CN(C)c1ncnc2c1ncn2[C@H]1CCC[C@@H]1O
survivor count (dose: 3.0 mg/kg/injection, schedule: Q01DX005 (ip), vehicle: Klucel (hydroxypropylcellulose) (HPC)): 4 of 6
survivor count (dose: 6.0 mg/kg/injection, schedule: Q01DX005 (ip), vehicle: Klucel (hydroxypropylcellulose) (HPC)): 1 of 6
survivor count (dose: 6.25 mg/kg/injection, schedule: Q01DX005 (ip), vehicle: Klucel (hydroxypropylcellulose) (HPC)): 3 of 3
survivor count (dose: 12.5 mg/kg/injection, schedule: Q01DX005 (ip), vehicle: Klucel (hydroxypropylcellulose) (HPC)): 2 of 6
survivor count [1]: 0 of 6
survivor count [2]: 0 of 5
survivor count [3]: 0 of 5
survivor count [4]: 0 of 5

CCCN(CCC)c1nc2ccc(NC(=O)OCC)cc2s1
survivor count (dose: 100.0 mg/kg/injection, schedule: Q01DX009 (ip), vehicle: saline with Tween-80): 1 of 6
survivor count (dose: 200.0 mg/kg/injection, schedule: Q01DX009 (ip), vehicle: saline with Tween-80): 0 of 6

COc1cc(NCC(C)(O)CN2CCCCC2)c2ncccc2c1 (configuration not stated)
survivor count (dose: 100.0 mg/kg/injection, schedule: Q01DX005 (ip), vehicle: saline): 0 of 5
survivor count (dose: 200.0 mg/kg/injection, schedule: Q01DX005 (ip), vehicle: saline): 0 of 5

CCOC(=O)/C=C/c1c[nH]c(=O)[nH]c1=O
survivor count (dose: 200.0 mg/kg/injection, schedule: Q01DX009 (ip), vehicle: distilled water + Tween-80): 6 of 6

CC1=C2CC(C)(C)/C=C\C(=O)/C(C)=C\C3=CC(C)(O)CC3(O2)C1=O (configuration not stated)
survivor count (dose: 20.0 mg/kg/injection, schedule: Q01DX009 (ip), vehicle: Klucel (hydroxypropylcellulose) (HPC)): 2 of 6

C=C(C)C1CC=C(C)C(OCCN(CC)CC)C1 (configuration not stated)
survivor count [4]: 0 of 6

O=C(Nc1ccc(Oc2ccc(Cl)cc2)c(Cl)c1)c1cc(I)cc(I)c1O
survivor count [3]: 1 of 6
survivor count [4]: 0 of 6

CCOC(=O)C(C(=O)OCC)=C1c2c(ccc(OC)c2OC)C=C2c3cc4c(cc3CCN21)OCO4
T/C (dose: 20.0 mg/kg/injection, schedule: Q01DX009 (ip), vehicle: water): 125 % of control

S=c1nc(N2CCOCC2)n(/C=C/c2ccccc2)c(=S)n1C(=N/C=C/c1ccccc1)N1CCOCC1
survivor count [5]: 6 of 6

COn1nnc2ccc(N)cc21
survivor count (dose: 400.0 mg/kg/injection, schedule: Q04DX002 (ip), vehicle: saline): 0 of 6

O=C(CBr)c1ccc(F)cc1
survivor count (dose: 25.0 mg/kg/injection, schedule: Q01DX009 (ip), vehicle: saline with Tween-80): 3 of 6
survivor count (dose: 50.0 mg/kg/injection, schedule: Q01DX009 (ip), vehicle: saline with Tween-80): 2 of 6
survivor count (dose: 100.0 mg/kg/injection, schedule: Q04DX003 (ip), vehicle: saline with Tween-80): 5 of 6

CCOC(=O)C(NC(=O)C1(O)C(O)C2(CC)C=CCN3CCC4(c5cc(C6(C(=O)OC)CC7CN(CCc8c6[nH]c6ccccc86)CC(O)(CC)C7)c(OC)cc5N(C)C14)C32)C(C)CC (configuration not stated)
T/C (dose: 1.0 mg/kg/injection, schedule: Q01DX001 (ip), vehicle: saline): 140 % of control
T/C (dose: 2.0 mg/kg/injection, schedule: Q01DX001 (ip), vehicle: saline): 136 % of control
T/C (dose: 4.0 mg/kg/injection, schedule: Q01DX001 (ip), vehicle: saline): 147 % of control
survivor count (dose: 16.0 mg/kg/injection, schedule: Q01DX001 (ip), vehicle: saline): 0 of 6
survivor count (dose: 32.0 mg/kg/injection, schedule: Q01DX001 (ip), vehicle: saline): 0 of 6 and 2 of 6

C[N+](C)(C)CCC(=O)c1ccc(Cl)cc1
survivor count (dose: 50.0 mg/kg/injection, schedule: Q01DX009 (ip), vehicle: saline): 2 of 6
survivor count (dose: 100.0 mg/kg/injection, schedule: Q01DX009 (ip), vehicle: saline): 0 of 6
survivor count (dose: 200.0 mg/kg/injection, schedule: Q01DX009 (ip), vehicle: saline): 0 of 6

O=[N+]([O-])O.[Mn].c1ccc(/C2=c3\cc/c([n-]3)=C(\c3ccccc3)c3ccc([n-]3)/C(c3ccccc3)=c3/cc/c([n-]3)=C(\c3ccccc3)c3ccc2[n-]3)cc1
survivor count (dose: 200.0 mg/kg/injection, schedule: Q04DX002 (ip), vehicle: Klucel (hydroxypropylcellulose) (HPC)): 6 of 6

CC(NNC(=S)N(C)C1CCCCC1)c1cc2ccccc2cn1 (configuration not stated)
T/C [6]: 137 % of control
survivor count [7]: 6 of 6
survivor count [8]: 0 of 6

O=[N+]([O-])c1ccccc1NN=NCCF
survivor count [1]: 3 of 5
survivor count [2]: 0 of 5
survivor count [3]: 0 of 5
survivor count [4]: 0 of 5

C/C(=N\NC(=S)N1CCN(c2ccccn2)CC1)c1nccs1
survivor count [6]: 6 of 6
survivor count (dose: 50.0 mg/kg/injection, schedule: Q01DX005 (ip), vehicle: saline with Tween-80): 5 of 6
survivor count [7]: 0 of 6
survivor count [8]: 0 of 6

Cc1cc2cc(Cl)c(CN)cc2[nH]1
survivor count (dose: 200.0 mg/kg/injection, schedule: Q04DX003 (ip), vehicle: Klucel (hydroxypropylcellulose) (HPC)): 4 of 6
survivor count (dose: 400.0 mg/kg/injection, schedule: Q04DX003 (ip), vehicle: Klucel (hydroxypropylcellulose) (HPC)): 2 of 6

CCOC(=O)/C=C/C(=O)NNS(=O)(=O)CC(N)C(=O)O (configuration not stated)
survivor count (dose: 400.0 mg/kg/injection, schedule: Q04DX003 (ip), vehicle: acid diluted with saline): 5 of 6

O=c1oc2c(c(N(c3ccccc3)c3ccccc3)c1Cl)CSc1ccccc1-2
survivor count [5]: 6 of 6
survivor count (dose: 400.0 mg/kg/injection, schedule: Q04DX003 (ip), vehicle: saline with Tween-80): 6 of 6

Cc1c(Br)c(C)[n+]([O-])n1O
survivor count (dose: 240.0 mg/kg/injection, schedule: Q01DX005 (ip), vehicle: Klucel (hydroxypropylcellulose) (HPC)): 3 of 6

O=C1c2c(O)cccc2C(C2OC(CO)C(O)C(O)C2O)c2cc(CO)cc(O)c21 (configuration not stated)
survivor count [4]: 1 of 6 and 3 of 6

C1CC[N-]CC1.CC(=O)Nc1[c-]cccc1.CC(=O)O.[Pd+2]
T/C [7]: 129 % of control [5 of 6 alive]
survivor count [7]: 1 of 6
survivor count [8]: 0 of 6

NC(CC(=O)O)C(=O)O (configuration not stated)
survivor count (dose: 200.0 mg/kg/injection, schedule: Q01DX009 (ip), vehicle: Klucel (hydroxypropylcellulose) (HPC)): 6 of 6

CCCCCCCC(=O)c1c(O)c2ccccc2oc1=O
survivor count (dose: 120.0 mg/kg/injection, schedule: Q01DX005 (ip), vehicle: saline with Tween-80): 5 of 6
survivor count (dose: 240.0 mg/kg/injection, schedule: Q01DX005 (ip), vehicle: saline with Tween-80): 3 of 6

C=C(C)C(=O)OC1CC2(C)OC2CCC2(C)OC2C2OC(=O)C(=C)C12 (configuration not stated)
survivor count (dose: 80.0 mg/kg/injection, schedule: Q01DX005 (ip), vehicle: Klucel (hydroxypropylcellulose) (HPC)): 0 of 6

N#CCCNc1cc(O)c2c(c1O)C(=O)c1ccccc1C2=O
survivor count (dose: 12.5 mg/kg/injection, schedule: Q01DX009 (ip), vehicle: other): 4 of 5
